Measurements reported in PubChem BioAssay AID1259254 (NCATS, 2017)

Purpose: 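Gene knock-downs that lead to re-replication, shown by excess G2 DNA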 (primary screen)
Cells: human HCT116 colorectal cancer cells
Reagents: single siRNA against human genes
Duration: 3 days
Read-out: 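Imaged Hoechst DNA stain sorts each cell into a cycle phase by DNA amount; per plate, G2 fraction set to 0% for non-targeting and 100% for GMNN siRNA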
Direction: G2 robust z-score and G2 cells, % of GMNN control: higher = more G2 cells, more excess DNA replication
Active means: 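Active siRNAs have a G2 robust z of 5 or more median absolute deviations over the median, which in these data means about 38% or higher of GMNN control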
The deposit covers about 59,000 reagents; this is a random part of them. About 1,550 of all reagents (2.6%) were called active. 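G2 share is only a proxy for re-replication; each gene was hit by three separate siRNAs, and active genes were retested.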 A number with no mark means an inactive call. Reagents against one gene are numbered here. Not all columns of the deposit are shown. Reagent sequences are not shown. Not stated in the record: the amount of reagent.

no.	gene	reagent no.	G2 robust z-score	G2 cells, % of GMNN control
1	FFAR1 (free fatty acid receptor 1)	1	1.49	13.4
2	FFAR1 (free fatty acid receptor 1)	2	3.58	28.1
3	FFAR1 (free fatty acid receptor 1)	3	-0.592	-1.2
4	PITPNA (phosphatidylinositol transfer protein alpha)	1	0.161	4.1
5	PITPNA (phosphatidylinositol transfer protein alpha)	2	-0.563	-0.991
6	PITPNA (phosphatidylinositol transfer protein alpha)	3	-0.868	-3.14
7	SLC6A11	1	-0.577	-1.09
8	SLC6A11	2	0.175	4.2
9	SLC6A11	3	-0.622	-1.41
10	CHST7 (carbohydrate sulfotransferase 7)	1	-0.927	-3.55
11	CHST7 (carbohydrate sulfotransferase 7)	2	0.302	5.1
12	CHST7 (carbohydrate sulfotransferase 7)	3	-0.841	-2.95
13	GADD45G (growth arrest and DNA damage inducible gamma)	1	-0.608	-1.31
14	GADD45G (growth arrest and DNA damage inducible gamma)	2	-0.504	-0.575
15	GADD45G (growth arrest and DNA damage inducible gamma)	3	0.352	5.44
16	C8B (complement C8 beta chain)	1	-0.505	-0.584
17	C8B (complement C8 beta chain)	2	-0.666	-1.72
18	C8B (complement C8 beta chain)	3	-0.694	-1.91
19	SELENOI (selenoprotein I)	1	-0.763	-2.4
20	SELENOI (selenoprotein I)	2	-0.455	-0.235
21	SELENOI (selenoprotein I)	3	1.64	14.5
22	VN1R5 (vomeronasal 1 receptor 5 (gene/pseudogene))	1	2.83	22.9
23	VN1R5 (vomeronasal 1 receptor 5 (gene/pseudogene))	2	-0.0437	2.66
24	VN1R5 (vomeronasal 1 receptor 5 (gene/pseudogene))	3	-0.0724	2.46
25	TNNI3 (troponin I3, cardiac type)	1	-1	-4.09
26	TNNI3 (troponin I3, cardiac type)	2	7.21 (active)	53.7
27	TNNI3 (troponin I3, cardiac type)	3	-0.506	-0.594
28	ZNF226 (zinc finger protein 226)	1	1.19	11.3
29	ZNF226 (zinc finger protein 226)	2	2.89	23.3
30	ZNF226 (zinc finger protein 226)	3	-0.896	-3.34

Quoted from above (4 entries):
no.	gene	reagent no.	G2 robust z-score	G2 cells, % of GMNN control
16	C8B (complement C8 beta chain)	1	-0.505	-0.584
17	C8B (complement C8 beta chain)	2	-0.666	-1.72
18	C8B (complement C8 beta chain)	3	-0.694	-1.91
19	SELENOI (selenoprotein I)	1	-0.763	-2.4
